Reference: patent publication US20100179058A1, “Azolylmethyloxiranes, Their Use for Controlling Phytopathogenic Fungi, and Compositions Comprising Them” (BASF SE, priority 2006, published 2010)
Some results were stated once for a whole list of compounds, not compound by compound.

Tests used:
Format in all cases: in vivo
Sphaerotheca fuliginea = experiment: Activity against mildew on cucumber leaves caused by Sphaerotheca fuliginea, protective application (Sphrfu P1), greenhouse; settings: 65 ppm active compound, cucumber seedlings, % infection of the cotyledon area, untreated plants 90% infected
Puccinia recondita = experiment: Protective activity against Puccinia recondita on wheat (brown rust of wheat) (Puccrt P1), greenhouse; settings: 65 ppm active compound, sprayed on wheat seedlings 1 day before inoculation; untreated plants 90% infected
Alternaria solani = experiment: Activity against early blight of tomato caused by Alternaria solani (Alteso P1), greenhouse; settings: 65 ppm active compound, tomato plants, protective; untreated plants 90% infected
Protocol: The active compounds were prepared separately or jointly as a stock solution comprising 25 mg of active compound which was made up to 10 ml using a mixture of acetone and/or DMSO and the emulsifier Wettol EM 31 (wetting agent having emulsifying and dispersing action based on ethoxylated alkylphenol) in a volume ratio of solvent/emulsifier of 99:1. The mixture was then made up to 100 ml with water. This stock solution was diluted with the solvent/emulsifier/water mixture described to give the concentration of active compound stated below. Leaves of potted tomato plants were sprayed to runoff point with an aqueous suspension having the active compound concentration stated below. The next day, the leaves were inoculated with an aqueous spore suspension of Alternaria solani in a 2% strength biomalt solution. The plants were then placed in a water vapor-saturated chamber at temperatures between 20 and 22° C. After 5 days, the disease on the untreated but infected control plants had developed to such an extent that the infection could be determined visually in %. The active compounds were prepared separately or jointly as a stock solution comprising 25 mg of active compound which was made up to 10 ml using a mixture of acetone and/or DMSO and the emulsifier Wettol EM 31 (wetting agent having emulsifying and dispersing action based on ethoxylated alkylphenol) in a volume ratio of solvent/emulsifier of 99:1. The mixture was then made up to 100 ml with water. This stock solution was diluted with the solvent/emulsifier/water mixture described to give the concentration of active compound stated below. Leaves of potted tomato plants were sprayed to runoff point with an aqueous suspension having the active compound concentration stated below. The next day, the leaves were inoculated with an aqueous spore suspension of Alternaria solani in a 2% strength biomalt solution. The plants were then placed in a water vapor-saturated chamber at temperatures between 20 and 22° C. After 5 days, the disease on the untreated but infected control plants had developed to such an extent that the infection could be determined visually in %.

SMILES	infection (Sphaerotheca fuliginea)	infection (Puccinia recondita)	infection (Alternaria solani)
Fc1ccc(C2(Cn3cncn3)OC2c2ccccc2Cl)c(F)c1 (racemic) [8.12]	at most 20%	at most 7%	–
Fc1ccc(C2(Cn3cncn3)OC2c2ccc(Cl)cc2)c(F)c1 (stereo not shown) [8.1]	at most 20%	at most 7%	–
Fc1ccc(C2(Cn3cncn3)OC2c2cccc(Cl)c2)c(F)c1 (stereo not shown) [8.2]	at most 20%	at most 7%	–
Fc1ccc(C2(Cn3cncn3)OC2c2ccc(Cl)c(Cl)c2)c(F)c1 (stereo not shown) [8.3]	at most 20%	at most 7%	–
Fc1ccc(C2(Cn3cncn3)OC2c2ccccc2F)c(F)c1 (stereo not shown) [8.4]	at most 20%	at most 7%	–
Fc1ccc(C2(Cn3cncn3)OC2c2ccc(F)c(F)c2)c(F)c1 (stereo not shown) [8.5]	at most 20%	at most 7%	–
Cc1ccc(C2OC2(Cn2cncn2)c2ccc(F)cc2F)cc1 (stereo not shown) [8.6]	at most 20%	at most 7%	–
Fc1ccc(C2(Cn3cncn3)OC2c2cc(Cl)cc(Cl)c2)c(F)c1 (stereo not shown) [8.7]	at most 20%	at most 7%	–
Fc1cc(F)cc(C2OC2(Cn2cncn2)c2ccc(F)cc2F)c1 (stereo not shown) [8.10]	–	–	at most 30%
Fc1ccc(C2(Cn3cncn3)OC2c2ccccc2C(F)(F)F)c(F)c1 (stereo not shown) [8.11]	–	–	at most 30%
Fc1ccc(F)c(C2(Cn3cncn3)OC2c2ccccc2F)c1 (stereo not shown) [8.15]	–	–	at most 30%
Cc1ccccc1C1OC1(Cn1cncn1)c1cc(F)ccc1F (stereo not shown) [8.16]	–	–	at most 30%
Fc1ccc(F)c(C2(Cn3cncn3)OC2c2cccc(Cl)c2)c1 (stereo not shown) [8.17]	–	–	at most 30%
Fc1ccc(C2(Cn3cncn3)OC2c2ccccc2Cl)cc1F (stereo not shown) [8.18]	at most 20%	at most 7%	–
Fc1ccc(C2OC2(Cn2cncn2)c2ccc(F)c(F)c2)cc1 (stereo not shown) [8.19]	at most 20%	at most 7%	–
Cc1ccccc1C1OC1(Cn1cncn1)c1ccc(F)c(F)c1 (stereo not shown) [8.20]	at most 20%	at most 7%	–
Fc1ccc(C2(Cn3cncn3)OC2c2ccccc2F)cc1F (stereo not shown) [8.21]	at most 20%	at most 7%	–
Fc1cc(F)cc(C2(Cn3cncn3)OC2c2ccccc2Cl)c1 (stereo not shown) [8.22]	–	–	at most 30%
Cc1ccccc1C1OC1(Cn1cncn1)c1cc(F)cc(F)c1 (stereo not shown) [8.23]	–	–	at most 30%
